Results are given in words; binding and its absence hold for the method and conditions named. A result given as binding can be weak or reduced; the word gives no strength. For part of these data: Binding seen in cells or lysates may run through a third protein. One block for each substance: values may come before it.
How the values were obtained:
[1] = target: His-tagged MsmK (multiple sugar metabolism protein K), full length (Streptococcus suis); test: far-Western, overlay or dot blot; far-Western blot of MsmK and its derivatives incubated with FtsZ; both purified
[2] = target: N_MsmK (amino acids 1 to 234), His-tagged (Streptococcus suis); test: as above
[3] = target: His-tagged FtsZ (filamentous temperature-sensitive protein Z) (Streptococcus suis); test: co-sedimentation; FtsZ (6 μM) incubated with increasing amounts of MsmK constructs with 2 mM GTP (1 mM ATP added if needed); high-speed centrifugation; pellets on Coomassie-stained gels; both purified
[4] = target: FtsZ, bacterial two-hybrid fusion (Streptococcus suis); test: two-hybrid; bacterial two-hybrid; pBT- and pTRG-related plasmids cotransformed into the reporter strain; growth on selective plates with 3-AT and streptomycin
[5] = target: MsmK with a His tag at the C terminus, expressed in S. suis strain CΔmsmK-His (Streptococcus suis); test: co-IP; exponentially growing S. suis cells cross-linked with 0.1% paraformaldehyde; lysate supernatant on Ni-NTA, 50 mM Tris-HCl pH 7.4, 150 mM NaCl, 25 mM imidazole, 4°C; washed with 80 mM, eluted with 250 mM imidazole; blots with anti-His, anti-MsmK and anti-FtsZ

Chains of the proteins cited; added tags and fusions are not shown. Lines headed by an entry give the natural chain unless they say otherwise; changes in a name come on top.
UniProt A0A0H3MXZ7: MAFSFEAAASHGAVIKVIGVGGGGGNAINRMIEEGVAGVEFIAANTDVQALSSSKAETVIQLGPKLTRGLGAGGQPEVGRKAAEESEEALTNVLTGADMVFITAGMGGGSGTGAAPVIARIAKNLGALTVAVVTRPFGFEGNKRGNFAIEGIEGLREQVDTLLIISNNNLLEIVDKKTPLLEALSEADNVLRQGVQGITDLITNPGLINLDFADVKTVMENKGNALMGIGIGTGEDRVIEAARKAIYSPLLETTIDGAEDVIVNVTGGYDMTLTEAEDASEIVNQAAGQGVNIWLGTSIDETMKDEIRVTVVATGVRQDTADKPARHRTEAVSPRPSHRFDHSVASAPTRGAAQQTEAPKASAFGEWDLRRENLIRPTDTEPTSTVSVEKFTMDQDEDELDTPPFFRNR
UniProt A0A0H3N1P0: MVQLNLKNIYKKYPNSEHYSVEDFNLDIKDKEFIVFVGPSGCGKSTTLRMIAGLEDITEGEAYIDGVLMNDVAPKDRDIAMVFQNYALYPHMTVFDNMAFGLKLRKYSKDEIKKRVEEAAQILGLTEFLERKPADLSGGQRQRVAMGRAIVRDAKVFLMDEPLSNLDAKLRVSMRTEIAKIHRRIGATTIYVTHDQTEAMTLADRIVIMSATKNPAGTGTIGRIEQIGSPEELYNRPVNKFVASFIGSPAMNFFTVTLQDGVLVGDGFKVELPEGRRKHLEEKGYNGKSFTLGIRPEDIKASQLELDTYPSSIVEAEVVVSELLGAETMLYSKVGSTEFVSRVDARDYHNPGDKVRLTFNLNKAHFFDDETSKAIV

Substance: His-tagged FtsZ (filamentous temperature-sensitive protein Z) (from UniProt A0A0H3MXZ7 1-409)
- binding [1]: binds
- binding [2]: binds

Substance: MsmK, bacterial two-hybrid fusion (pTRG-msmK) (from UniProt A0A0H3N1P0 1-376) (enzyme)
- binding [4]: binds

Substance: endogenous FtsZ of S. suis (from UniProt A0A0H3MXZ7 1-409)
- binding [5]: binds

More lines, now with the values ahead:

- binding [3]: binds
Substance: His-tagged MsmK (multiple sugar metabolism protein K), full length (from UniProt A0A0H3N1P0 1-376) (enzyme)

- binding [3]: binds
Substance: N_MsmK (amino acids 1 to 234), His-tagged (from UniProt A0A0H3N1P0 1-234) (domain or fragment)

From paper PMC8546688
